Taken from: PubChem BioAssay AID1259308 (NCATS, 2017)
Here is a random part of about 59,000 deposited reagents. About 1,510 of all reagents (2.6%) count as active. 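Calls use total luciferase alone and ignore viability, so some active siRNAs may act by altering cell number.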 Reagents against one gene are numbered here. Further read-outs or replicates are left out here.

Screen: 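Candidate targets for better recombinant protein yield in mammalian cells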 (primary screen)
Cells: human HEK293 embryonic kidney cells stably expressing firefly luciferase (HEK-CMV-Luc2-Hygro)
Reagents: single siRNA against human genes, 0.8 pmol siRNA per well
Timing: 72 h
Detection: 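Luciferase light (ONE-Glo) measured on one replicate plate set and viability (CellTiter-Glo) on the other, scaled to a negative control siRNA, with robust z-scores and luciferase per cell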
Direction: total luciferase, z-score: higher = more reporter protein produced
Active means: 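An siRNA counts as active if its total luciferase robust z-score exceeds 3; genes with two or more such siRNAs out of three were retested with fresh siRNAs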
Meaning of the calls: active = raised luciferase; inactive = no rise

With knock-down of CBR1 (GeneID 873) #1, the screen gave total luciferase, z-score 2.17; inactive.
Against CBR1 (GeneID 873) #2, the entry reads total luciferase, z-score -0.734; inactive.
CBR1 (GeneID 873) #3 gave total luciferase, z-score 0.967; inactive.
With knock-down of CFAP184 (GeneID 257236) #1, the screen gave total luciferase, z-score 0.101; inactive.
CFAP184 (GeneID 257236) #2 scored total luciferase, z-score 0.236; inactive.
CFAP184 (GeneID 257236) #3 scored total luciferase, z-score -2.66; inactive.
After knock-down of PRM3 (GeneID 58531) #1, the screen gave total luciferase, z-score -0.552; inactive.
PRM3 (GeneID 58531) #2 scored total luciferase, z-score -0.642; inactive.
Against PRM3 (GeneID 58531) #3 the deposit lists total luciferase, z-score 1.71; inactive.
EPHX1 (GeneID 2052) #1 showed total luciferase, z-score -1.48; inactive.
With knock-down of EPHX1 (GeneID 2052) #2 the results were total luciferase, z-score -0.534; inactive.
Against EPHX1 (GeneID 2052) #3, the entry reads total luciferase, z-score 0.252; inactive.
Silencing of SLC13A4 (GeneID 26266) #1 gave: total luciferase, z-score 3.05; active.
Depletion of SLC13A4 (GeneID 26266) #2 resulted in: total luciferase, z-score 0.0378; inactive.
Knock-down of SLC13A4 (GeneID 26266) #3 resulted in: total luciferase, z-score -2.18; inactive.
With knock-down of CIST1 (GeneID 729966) #1, the record shows total luciferase, z-score -0.815; inactive.
Knock-down of CIST1 (GeneID 729966) #2 gave: total luciferase, z-score 2.95; inactive.
For CIST1 (GeneID 729966) #3, the values are total luciferase, z-score -1.45; inactive.
With knock-down of LTB4R (GeneID 1241) #1, the screen gave total luciferase, z-score 1.12; inactive.
Against LTB4R (GeneID 1241) #2 the deposit lists total luciferase, z-score -0.708; inactive.
After knock-down of LTB4R (GeneID 1241) #3, the screen gave total luciferase, z-score -0.968; inactive.
Depletion of KLK4 (GeneID 9622) #1 came out at: total luciferase, z-score 0.315; inactive.
After knock-down of KLK4 (GeneID 9622) #2, the record shows total luciferase, z-score 1.23; inactive.
Knock-down of KLK4 (GeneID 9622) #3 came out at: total luciferase, z-score -0.256; inactive.
Against EPHB3 (GeneID 2049) #1, the entry reads total luciferase, z-score 0.894; inactive.
Depletion of EPHB3 (GeneID 2049) #2 gave: total luciferase, z-score 0.287; inactive.
For EPHB3 (GeneID 2049) #3, the entry reads total luciferase, z-score 0.795; inactive.
After knock-down of LNX2 (GeneID 222484) #1, the screen gave total luciferase, z-score -0.0225; inactive.
For LNX2 (GeneID 222484) #2 the deposit lists total luciferase, z-score -0.702; inactive.
For LNX2 (GeneID 222484) #3, the entry reads total luciferase, z-score -0.357; inactive.
Knock-down of SLC22A23 (GeneID 63027) #1 resulted in: total luciferase, z-score 0.753; inactive.
After knock-down of SLC22A23 (GeneID 63027) #2 the results were total luciferase, z-score -0.566; inactive.
SLC22A23 (GeneID 63027) #3 showed total luciferase, z-score -1.08; inactive.
MICALL2 (GeneID 79778) #1 gave total luciferase, z-score 0.0533; inactive.
MICALL2 (GeneID 79778) #2 scored total luciferase, z-score -0.0388; inactive.
Against MICALL2 (GeneID 79778) #3, the entry reads total luciferase, z-score 0.991; inactive.
GMEB1 (GeneID 10691) #1 gave total luciferase, z-score -1.25; inactive.
For GMEB1 (GeneID 10691) #2, the values are total luciferase, z-score 1.03; inactive.
GMEB1 (GeneID 10691) #3 scored total luciferase, z-score -0.0414; inactive.
With knock-down of LOC643675 (retired record) (GeneID 643675) #1 the results were total luciferase, z-score -0.308; inactive.
After knock-down of LOC643675 (retired record) (GeneID 643675) #2, the screen gave total luciferase, z-score 1.22; inactive.
LOC643675 (retired record) (GeneID 643675) #3 scored total luciferase, z-score 0.478; inactive.

3 consecutive records from above:
MICALL2 (GeneID 79778) #2 — total luciferase, z-score: -0.0388; Call: inactive
MICALL2 (GeneID 79778) #3 — total luciferase, z-score: 0.991; Call: inactive
GMEB1 (GeneID 10691) #1 — total luciferase, z-score: -1.25; Call: inactive
